Results deposited as PubChem BioAssay AID1259307 (Sanger Institute, 2017)
In all, the deposit lists 794 reagents; this is an unselected part. 15 of them (1.9%) count as active. 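Calls reflect lethality without any drug; synergy scores did not enter the calls.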 Viability is capped at 1. Not stated in the record: the amount of reagent, the time to read-out.

- Aim: 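Screen of kinase gene silencing for colorectal cancer cell killing and drug cooperation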 (primary screen)
- Cells: SW620 colorectal cancer cells
- Knock-down reagent: siRNA pool against human genes
- Conditions: anchor drugs BYL719 at 1 µM, cetuximab at 5 µg/ml or trametinib at 10 nM, each beside a DMSO vehicle arm
- Read-out: 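Cell viability in each well relative to non-targeting controls, averaged over replicates and turned into a robust z-score; synergy with BYL719 (1 µM), cetuximab (5 µg/ml), trametinib (10 nM) versus DMSO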
- Scale: viability robust z-score, no drug and viability vs control, no drug: higher = more viable cells; synergy score with BYL719 and synergy score with cetuximab and synergy score with trametinib: higher = stronger synthetic lethality with the drug
- Call rule: 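a knock-down counts as lethal alone if its drug-free robust viability z-score is lower than -3, regardless of synergy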
- Meaning of the calls: active = essential (lethal alone); inactive = no change alone

no.	target	PubChem SID	viability robust z-score, no drug	viability vs control, no drug	synergy score with BYL719	synergy score with cetuximab	synergy score with trametinib	outcome
1	CSNK1G1	SID152156369	0.594	0.987	0.011	0.0574	0.03	inactive
2	SMAD2	SID152156776	-0.442	0.891	-0.0177	-0.0221	-0.0208	inactive
3	ROCK2	SID135620850	-0.188	0.915	0.0674	0.0249	-0.00265	inactive
4	IKBKB	SID152150353	-0.649	0.872	-0.0691	-0.103	-0.0735	inactive
5	PRKD2	SID135620789	0.387	0.968	-0.0659	-0.0322	0.00708	inactive
6	ERN1	SID135620914	0.422	0.971	0.048	0.0655	0.085	inactive
7	CAMK2N1	SID152156102	-2.94	0.661	0.0336	-0.13	-0.145	inactive
8	STK38	SID152149792	-1.58	0.787	-0.137	-0.213	-0.238	inactive
9	PRKACB	SID56478825	0.423	0.971	0.0642	0.0609	0.0872	inactive
10	CALM3	SID152148336	0.485	0.977	-0.0694	-0.0231	-0.0367	inactive
11	NRK	SID152149639	0.736	1	-0.0489	0	0.0304	inactive
12	CAMKK2	SID135620895	0.736	1	-0.0919	0.0209	-0.208	inactive
13	WNK1	SID152148140	0.736	1	-0.00923	0.101	0.0663	inactive
14	KMT2B	SID134314396	0.55	0.983	-0.108	-0.0172	-0.0193	inactive
15	NPR2	SID152151652	-0.568	0.88	-0.102	-0.12	-0.0596	inactive
16	BCKDK	SID135620909	0.736	1	-0.0919	0	-0.0236	inactive
17	MAPK10	SID56478791	0.736	1	-0.0171	0.0388	-0.00672	inactive
18	CDK18	SID56478887	-0.877	0.851	0.046	0.129	0.000334	inactive
19	PIK3CB	SID56478474	-0.502	0.886	-0.106	-0.107	-0.0241	inactive
20	PRKAR2A	SID152153424	0.736	1	0.0374	0.00452	0.0855	inactive
21	MERTK	SID135620626	-1.8	0.766	-0.0501	-0.0549	0.0142	inactive
22	ACO1	SID134314687	0.649	0.992	0.00536	0.0237	0.132	inactive
23	NUP98	SID152147776	-4.49	0.518	-0.0748	0.0378	0.0547	active
24	TSSK3	SID152155438	-1.32	0.811	-0.104	-0.0685	-0.135	inactive
25	ITSN1	SID135621555	-2.14	0.734	-0.128	-0.226	-0.0369	inactive
26	PINK1	SID152149500	0.538	0.982	0.0242	-0.00316	0.0249	inactive

The list goes on (7 carried over from the part before).
no.	target	PubChem SID	viability robust z-score, no drug	viability vs control, no drug	synergy score with BYL719	synergy score with cetuximab	synergy score with trametinib	outcome
20	PRKAR2A	SID152153424	0.736	1	0.0374	0.00452	0.0855	inactive
21	MERTK	SID135620626	-1.8	0.766	-0.0501	-0.0549	0.0142	inactive
22	ACO1	SID134314687	0.649	0.992	0.00536	0.0237	0.132	inactive
23	NUP98	SID152147776	-4.49	0.518	-0.0748	0.0378	0.0547	active
24	TSSK3	SID152155438	-1.32	0.811	-0.104	-0.0685	-0.135	inactive
25	ITSN1	SID135621555	-2.14	0.734	-0.128	-0.226	-0.0369	inactive
26	PINK1	SID152149500	0.538	0.982	0.0242	-0.00316	0.0249	inactive
27	SIK2	SID135620885	-0.206	0.913	-0.0041	0.091	0.0656	inactive
28	GK	SID56479100	-0.809	0.857	-0.0364	-0.143	-0.0337	inactive
29	SRPK1	SID56478751	-1.18	0.823	-0.0684	-0.0687	-0.0721	inactive
30	TAF1	SID56478970	0.648	0.992	-0.0993	-0.0081	-0.0816	inactive
31	NME1	SID56479166	0.294	0.959	-0.0571	0.0135	-0.0131	inactive
32	MET	SID56478534	0.64	0.991	0.0738	0.124	0.00779	inactive
33	CEP290	SID152154792	0.736	1	-0.0919	0	0.00773	inactive
34	ACVR1	SID152154539	0.551	0.983	0.0154	0.118	0.0769	inactive
35	BMAL1	SID134314841	-0.832	0.855	-0.00818	-0.052	0.0121	inactive
36	EPHA8	SID135620615	-0.271	0.907	-0.114	-0.093	-0.115	inactive
37	STK32B	SID56478812	-1.76	0.77	-0.0323	0.037	0.0601	inactive
38	VRK2	SID152152279	0.403	0.969	0.0314	-0.0307	0.00632	inactive
39	CAMK2A	SID56478931	0.116	0.943	-0.13	-0.0572	-0.0637	inactive
40	TWF2	SID56478547	0.736	1	-0.0143	0.0466	-0.152	inactive
41	DLG2	SID152155470	0.66	0.993	0.0333	-0.00699	0.0606	inactive
42	RPS6KA4	SID152147672	0.736	1	-0.0417	0.0825	0.0804	inactive
43	CUL1	SID134310265	-0.514	0.885	-0.188	-0.115	-0.0638	inactive
44	FRK	SID56478519	-0.219	0.912	-0.172	-0.0872	-0.0651	inactive
45	ALPK1	SID152152286	-0.429	0.892	-0.0391	-0.0886	-0.0365	inactive
46	SLK	SID56478731	0.736	1	-0.0355	0.042	0.0149	inactive
47	PFKP	SID56479236	-0.359	0.899	-0.0548	-0.00631	-0.000961	inactive
48	TNK2	SID56478482	0.736	1	-0.0565	0	0.00601	inactive
49	NIM1K	SID56478948	0.136	0.945	-0.0388	-0.0276	-0.0204	inactive
50	MPP1	SID56479235	0.162	0.947	-0.14	-0.053	-0.071	inactive
